For at least one compound, name, drawing or mass did not settle the structure.
Assays:
CβS = conditions: fatty Zucker rat; earlier report (ref. 26); cited from earlier work
VSMCs [1] = assay: VSMC proliferation in response to homocysteine; format: cell-based; conditions: homocysteine 100 uM; FIG. 5
[2] = tested on: cystathionine-β-synthase (CβS); assay: Cystathionine-β-synthase activity assayed in liver samples of treated rats; format: in vivo, Sprague Dawley rats; conditions: result in words
Description: Ten-week-old female Sprague Dawley rats were obtained from Harlan Laboratories (Indianapolis, Ind.). After an acclimatization period of one week, they were fed a powdered control diet with or without methionine for one week. After one week on the normal or methionine diet, an aqueous preparation rosiglitazone (3.0 mg/kg/d) or vehicle was administered by gavage. The methionine diet was prepared with 10 g of L-methionine obtained from Sigma Chemical Company in St. Louis, Miss., added to 10 kg of powdered feed and thoroughly mixed. The rats were divided into four groups (n=7/group) and fed a) control diet; b) control diet with administration of rosiglitazone; c) methionine diet; and d) methionine diet with rosiglitazone.
Before the beginning of the experiment, and at the time of sacrificing the animal a blood sample was obtained from each rat. At the end of the experiment, rats were sacrificed using a carbon dioxide chamber for harvesting tissues. Samples of blood and liver were collected and immediately processed. The serum and liver samples were stored frozen.
The Hcy levels were measured by high pressure liquid chromatography according to an established method (28,29). Cystathionine-β-synthase (CβS) was assayed in the liver samples, and the procedure followed was as previously published (26).

VSMCs [3] = assay: DNA synthesis (3-thymidine incorporation) in VSMCs; format: cell-based; conditions: FIG. 6

Compound: Cc1c(C)c2c(c(C)c1O)CCC(C)(COc1ccc(CC3SC(=O)NC3=O)cc1)O2 (centres unmarked) [troglitazone]
- effect on CβS activity (CβS): stimulated CβS activity

Compound: CN(CCOc1ccc(CC2SC(=O)NC2=O)cc1)c1ccccn1 (centres unmarked) [rosiglitazone]
- proliferative response of VSMCs to homocysteine (VSMCs [1]): completely inhibited the proliferative response to homocysteine
- effect on the activity of CβS [2]: stimulated the activity of CβS
- homocysteine-stimulated DNA synthesis (3-thymidine incorporation) (VSMCs [3]; VSMCs stimulated with homocysteine): completely inhibited homocysteine-stimulated DNA synthesis
- 3-thymidine incorporation in control cell cultures (VSMCs [3]; control cell cultures, no homocysteine): inhibited 3-thymidine incorporation
